Measurements published in the supplement of paper PMC10849652.
The list shows a part of the results.

Amino acid sequences for entries named in this document (tags omitted). A change or cut given only in a name is not applied to a line headed by its entry.
UniProt Q6UWU4: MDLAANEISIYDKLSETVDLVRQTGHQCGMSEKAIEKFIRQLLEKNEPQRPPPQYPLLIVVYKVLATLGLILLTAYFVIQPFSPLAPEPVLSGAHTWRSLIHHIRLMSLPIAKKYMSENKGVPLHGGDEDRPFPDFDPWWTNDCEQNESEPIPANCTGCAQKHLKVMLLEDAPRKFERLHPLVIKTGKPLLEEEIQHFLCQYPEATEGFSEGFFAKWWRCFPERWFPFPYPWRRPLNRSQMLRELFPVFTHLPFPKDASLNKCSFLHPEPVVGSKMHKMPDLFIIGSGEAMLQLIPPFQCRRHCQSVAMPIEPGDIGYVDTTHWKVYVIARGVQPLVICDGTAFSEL
UniProt P05937: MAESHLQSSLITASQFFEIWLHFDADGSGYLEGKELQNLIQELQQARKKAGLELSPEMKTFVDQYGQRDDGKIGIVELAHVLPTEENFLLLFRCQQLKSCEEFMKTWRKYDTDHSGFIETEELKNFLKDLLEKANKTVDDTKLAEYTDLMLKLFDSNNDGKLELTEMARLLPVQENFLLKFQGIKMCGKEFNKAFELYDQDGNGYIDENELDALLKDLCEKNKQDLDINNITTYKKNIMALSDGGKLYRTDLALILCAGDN
UniProt Q96F05: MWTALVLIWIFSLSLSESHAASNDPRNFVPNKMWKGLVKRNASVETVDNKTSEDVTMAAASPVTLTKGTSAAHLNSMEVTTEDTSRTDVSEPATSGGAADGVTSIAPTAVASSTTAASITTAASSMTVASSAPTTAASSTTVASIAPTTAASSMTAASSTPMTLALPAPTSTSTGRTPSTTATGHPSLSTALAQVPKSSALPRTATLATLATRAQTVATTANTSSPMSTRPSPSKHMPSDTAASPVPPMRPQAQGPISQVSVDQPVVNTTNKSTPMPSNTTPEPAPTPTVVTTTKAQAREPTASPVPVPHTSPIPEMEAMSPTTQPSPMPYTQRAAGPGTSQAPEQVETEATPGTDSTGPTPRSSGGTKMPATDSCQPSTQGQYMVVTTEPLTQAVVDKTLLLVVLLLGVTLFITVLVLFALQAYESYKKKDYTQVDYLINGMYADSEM
UniProt Q07021: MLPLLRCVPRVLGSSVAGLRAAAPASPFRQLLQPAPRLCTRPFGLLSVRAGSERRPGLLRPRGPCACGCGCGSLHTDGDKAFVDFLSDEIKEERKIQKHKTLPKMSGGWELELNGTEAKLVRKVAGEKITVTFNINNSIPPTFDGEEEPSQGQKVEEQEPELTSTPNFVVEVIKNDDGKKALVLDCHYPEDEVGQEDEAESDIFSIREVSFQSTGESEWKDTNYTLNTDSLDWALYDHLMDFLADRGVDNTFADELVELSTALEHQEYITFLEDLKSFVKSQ
UniProt P0DMB2: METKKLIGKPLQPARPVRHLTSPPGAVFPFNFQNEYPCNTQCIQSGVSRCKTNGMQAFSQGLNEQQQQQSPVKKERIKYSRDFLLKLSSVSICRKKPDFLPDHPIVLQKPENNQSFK
UniProt Q7L1Q6: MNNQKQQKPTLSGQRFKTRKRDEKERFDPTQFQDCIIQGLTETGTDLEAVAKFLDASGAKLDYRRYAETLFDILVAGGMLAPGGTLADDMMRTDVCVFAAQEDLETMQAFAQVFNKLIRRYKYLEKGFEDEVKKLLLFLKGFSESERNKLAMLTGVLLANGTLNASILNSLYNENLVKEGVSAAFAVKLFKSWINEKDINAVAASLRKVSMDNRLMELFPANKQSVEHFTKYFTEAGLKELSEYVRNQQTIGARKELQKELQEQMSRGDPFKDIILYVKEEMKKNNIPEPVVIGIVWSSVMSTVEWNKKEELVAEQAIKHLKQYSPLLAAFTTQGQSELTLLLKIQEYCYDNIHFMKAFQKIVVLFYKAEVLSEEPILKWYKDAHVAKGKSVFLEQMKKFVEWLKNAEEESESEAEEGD
UniProt A6NDU8: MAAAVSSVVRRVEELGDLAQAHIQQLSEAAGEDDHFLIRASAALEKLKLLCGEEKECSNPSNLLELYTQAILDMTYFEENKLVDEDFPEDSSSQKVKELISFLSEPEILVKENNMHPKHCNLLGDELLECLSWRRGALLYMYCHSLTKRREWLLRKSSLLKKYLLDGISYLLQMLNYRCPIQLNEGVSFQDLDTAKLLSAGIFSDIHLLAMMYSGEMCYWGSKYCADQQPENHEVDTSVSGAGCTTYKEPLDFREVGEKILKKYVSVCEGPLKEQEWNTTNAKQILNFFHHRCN
UniProt P27797, whole entry, looked up: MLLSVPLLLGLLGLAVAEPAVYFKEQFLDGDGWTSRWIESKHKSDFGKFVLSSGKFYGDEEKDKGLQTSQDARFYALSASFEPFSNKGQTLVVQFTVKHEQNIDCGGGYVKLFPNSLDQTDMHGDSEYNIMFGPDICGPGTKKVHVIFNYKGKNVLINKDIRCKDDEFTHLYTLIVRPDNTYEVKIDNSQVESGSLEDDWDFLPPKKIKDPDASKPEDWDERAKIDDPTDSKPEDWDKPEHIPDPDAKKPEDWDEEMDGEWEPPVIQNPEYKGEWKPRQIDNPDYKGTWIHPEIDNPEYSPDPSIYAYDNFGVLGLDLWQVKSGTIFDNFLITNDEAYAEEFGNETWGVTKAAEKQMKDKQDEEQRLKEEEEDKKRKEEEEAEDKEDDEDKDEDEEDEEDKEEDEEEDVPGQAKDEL
UniProt O14523: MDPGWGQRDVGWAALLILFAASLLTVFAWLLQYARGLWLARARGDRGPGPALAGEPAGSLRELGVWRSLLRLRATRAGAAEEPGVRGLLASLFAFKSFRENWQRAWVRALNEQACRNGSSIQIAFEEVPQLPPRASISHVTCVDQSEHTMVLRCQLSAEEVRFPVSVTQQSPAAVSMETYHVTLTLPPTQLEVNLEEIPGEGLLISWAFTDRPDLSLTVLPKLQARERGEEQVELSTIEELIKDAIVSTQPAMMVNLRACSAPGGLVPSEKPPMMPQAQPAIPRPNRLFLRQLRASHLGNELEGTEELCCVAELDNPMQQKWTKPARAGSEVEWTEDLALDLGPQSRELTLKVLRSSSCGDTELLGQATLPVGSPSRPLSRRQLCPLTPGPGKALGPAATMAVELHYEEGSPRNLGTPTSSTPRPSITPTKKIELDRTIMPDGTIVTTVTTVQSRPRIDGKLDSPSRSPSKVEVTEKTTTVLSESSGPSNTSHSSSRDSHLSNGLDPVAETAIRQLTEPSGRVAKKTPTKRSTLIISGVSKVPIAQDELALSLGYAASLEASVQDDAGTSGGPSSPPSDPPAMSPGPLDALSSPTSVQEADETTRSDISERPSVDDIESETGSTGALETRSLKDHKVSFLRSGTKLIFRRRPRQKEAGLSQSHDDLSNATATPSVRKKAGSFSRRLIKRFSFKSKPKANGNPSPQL
UniProt Q13137: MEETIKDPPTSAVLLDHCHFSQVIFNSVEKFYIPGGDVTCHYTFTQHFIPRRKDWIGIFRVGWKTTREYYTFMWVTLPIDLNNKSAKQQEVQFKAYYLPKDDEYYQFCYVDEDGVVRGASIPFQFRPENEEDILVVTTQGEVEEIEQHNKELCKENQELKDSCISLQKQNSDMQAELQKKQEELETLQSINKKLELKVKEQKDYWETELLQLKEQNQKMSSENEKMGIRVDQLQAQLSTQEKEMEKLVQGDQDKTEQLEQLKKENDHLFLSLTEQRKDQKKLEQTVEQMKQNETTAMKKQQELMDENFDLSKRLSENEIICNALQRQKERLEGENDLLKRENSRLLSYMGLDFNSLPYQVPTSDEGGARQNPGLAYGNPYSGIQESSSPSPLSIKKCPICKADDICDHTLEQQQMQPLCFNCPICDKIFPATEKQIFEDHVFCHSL
UniProt Q13895: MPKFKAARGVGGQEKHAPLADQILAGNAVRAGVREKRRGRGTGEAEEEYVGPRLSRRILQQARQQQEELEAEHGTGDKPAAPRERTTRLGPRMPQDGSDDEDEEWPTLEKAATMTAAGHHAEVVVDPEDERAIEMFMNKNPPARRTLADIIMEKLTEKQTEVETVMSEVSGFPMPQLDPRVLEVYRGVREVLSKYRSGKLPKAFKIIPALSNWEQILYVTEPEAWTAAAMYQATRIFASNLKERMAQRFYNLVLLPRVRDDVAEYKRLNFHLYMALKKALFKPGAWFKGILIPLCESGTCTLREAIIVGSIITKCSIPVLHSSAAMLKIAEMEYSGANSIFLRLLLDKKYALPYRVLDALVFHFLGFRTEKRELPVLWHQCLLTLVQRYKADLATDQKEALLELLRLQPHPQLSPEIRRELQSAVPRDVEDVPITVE
UniProt P04632: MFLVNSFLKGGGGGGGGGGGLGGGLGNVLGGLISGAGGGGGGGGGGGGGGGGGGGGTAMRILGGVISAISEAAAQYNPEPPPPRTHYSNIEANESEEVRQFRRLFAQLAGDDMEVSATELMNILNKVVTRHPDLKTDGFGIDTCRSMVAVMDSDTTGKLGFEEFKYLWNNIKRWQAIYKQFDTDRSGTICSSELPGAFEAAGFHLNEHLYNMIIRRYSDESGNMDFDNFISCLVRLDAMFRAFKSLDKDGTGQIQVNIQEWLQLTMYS
UniProt Q6P5X5: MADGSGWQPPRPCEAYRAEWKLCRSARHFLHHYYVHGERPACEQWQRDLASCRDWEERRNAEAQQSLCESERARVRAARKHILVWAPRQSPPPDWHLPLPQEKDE
UniProt Q5T6V5: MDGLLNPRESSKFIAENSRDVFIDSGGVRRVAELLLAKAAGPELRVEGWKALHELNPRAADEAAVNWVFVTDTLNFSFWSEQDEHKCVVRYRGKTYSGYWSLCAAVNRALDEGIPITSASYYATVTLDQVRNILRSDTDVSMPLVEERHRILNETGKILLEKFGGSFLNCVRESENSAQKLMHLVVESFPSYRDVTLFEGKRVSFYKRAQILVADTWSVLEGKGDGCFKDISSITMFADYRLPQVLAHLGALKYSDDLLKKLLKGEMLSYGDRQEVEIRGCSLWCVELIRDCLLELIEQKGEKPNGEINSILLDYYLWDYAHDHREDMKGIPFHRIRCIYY
UniProt Q01518, whole entry, looked up: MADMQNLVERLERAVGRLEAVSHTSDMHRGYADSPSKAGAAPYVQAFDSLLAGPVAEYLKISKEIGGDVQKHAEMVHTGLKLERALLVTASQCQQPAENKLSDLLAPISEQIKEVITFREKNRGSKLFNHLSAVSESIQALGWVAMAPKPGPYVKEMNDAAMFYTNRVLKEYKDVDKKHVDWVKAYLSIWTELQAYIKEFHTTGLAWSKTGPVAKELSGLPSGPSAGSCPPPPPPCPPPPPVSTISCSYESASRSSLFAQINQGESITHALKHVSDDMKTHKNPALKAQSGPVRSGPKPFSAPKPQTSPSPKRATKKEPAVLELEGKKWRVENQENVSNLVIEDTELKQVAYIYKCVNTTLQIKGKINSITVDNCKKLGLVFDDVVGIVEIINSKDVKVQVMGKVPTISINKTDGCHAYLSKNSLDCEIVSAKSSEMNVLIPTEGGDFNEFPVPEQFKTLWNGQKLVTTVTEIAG
UniProt Q14444, whole entry, looked up: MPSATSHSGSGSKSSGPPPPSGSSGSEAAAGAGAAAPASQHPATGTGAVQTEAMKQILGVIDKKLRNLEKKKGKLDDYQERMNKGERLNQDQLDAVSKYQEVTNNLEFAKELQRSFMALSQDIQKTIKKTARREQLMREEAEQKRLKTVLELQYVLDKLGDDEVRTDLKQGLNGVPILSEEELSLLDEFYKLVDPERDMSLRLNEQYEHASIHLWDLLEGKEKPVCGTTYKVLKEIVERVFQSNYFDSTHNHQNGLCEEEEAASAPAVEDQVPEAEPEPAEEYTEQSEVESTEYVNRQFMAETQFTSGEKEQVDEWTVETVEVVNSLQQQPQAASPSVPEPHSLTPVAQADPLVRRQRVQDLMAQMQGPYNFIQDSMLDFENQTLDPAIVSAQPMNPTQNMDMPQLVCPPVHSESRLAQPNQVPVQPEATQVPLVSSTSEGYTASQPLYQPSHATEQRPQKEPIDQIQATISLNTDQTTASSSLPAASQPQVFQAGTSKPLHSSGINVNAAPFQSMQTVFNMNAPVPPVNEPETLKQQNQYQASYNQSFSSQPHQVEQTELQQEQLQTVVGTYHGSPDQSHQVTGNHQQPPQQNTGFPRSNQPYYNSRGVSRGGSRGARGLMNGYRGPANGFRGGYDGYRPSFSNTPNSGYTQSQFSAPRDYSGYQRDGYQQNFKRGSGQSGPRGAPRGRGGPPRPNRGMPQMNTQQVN
UniProt Q9Y6E2: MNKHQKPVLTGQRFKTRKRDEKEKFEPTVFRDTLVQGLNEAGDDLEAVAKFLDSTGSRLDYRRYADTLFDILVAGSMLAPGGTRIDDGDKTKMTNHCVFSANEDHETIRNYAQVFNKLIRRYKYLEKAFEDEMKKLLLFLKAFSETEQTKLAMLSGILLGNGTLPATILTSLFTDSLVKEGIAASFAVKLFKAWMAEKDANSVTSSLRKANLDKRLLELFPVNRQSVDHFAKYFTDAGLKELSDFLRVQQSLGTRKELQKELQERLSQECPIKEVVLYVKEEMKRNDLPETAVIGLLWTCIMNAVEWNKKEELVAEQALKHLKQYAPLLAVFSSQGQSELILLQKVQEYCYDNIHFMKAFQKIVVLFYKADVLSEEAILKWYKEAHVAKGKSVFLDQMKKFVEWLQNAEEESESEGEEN

Columns and labels:
Assay in all cases: log2 fold change, soluble protein after heating vs DMSO (PISA); higher = thermal stabilisation; K562 cells, 10 uM, 30 min; active = over 0.2 and 3.5 SD of the protein, either way, in both replicates (recomputed)
[1] = compound: C#Cc1cccc(Nc2ncnc3cc(OCCOC)c(OCCOC)cc23)c1 [erlotinib]
Procedure, shortened: (§1)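 K562 cells (2×10^6 cells/mL) were treated with 10 μM compound for 30 min, and aliquots were heated for 3 min over 48°C-58°C. Pooled aliquots were extracted in PBS with 0.5% NP-40 at 4°C, and the supernatant after 21,000xg for 90 min was measured by TMTpro 16plex LC-MS/MS with channel sums equalised. Reported thermal stability, relative to control samples and from duplicates, is a log2 fold change.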

[2] = compound: C/C(=N\NC(=O)C1=CC(=CC=C1)S(=O)(=O)N2CCOCC2)/C3=C(C=CC(=C3)Cl)O
Procedure, shortened: as §1

[3] = compound: C1=CC(=C(C=C1Cl)C2=NC3=NC=CN=C3C(=N2)NC4=CC=NC=C4)F
Procedure, shortened: as §1

[4] = compound: C1=CC(=CC=C1C2=NC3=C(N2)C=C(C=C3)C(=O)N)OC4=CC=C(C=C4)Cl
Procedure, shortened: as §1

[5] = compound: C1=CC2=C(C=CC(=C2)/C=C\3/C(=O)NC(=NCC4=CC=CS4)S3)N=C1
Procedure, shortened: as §1

[6] = compound: C1=CC2=NC=CN=C2C=C1/C=C/3\C(=O)NC(=O)S3
Procedure, shortened: as §1

[7] = compound: C1=CC=C(C=C1)C2=NC(=C(N2)C3=CC=NC=C3)C4=CC(=C(C=C4)Cl)O
Procedure, shortened: as §1

[8] = compound: C1=CC=C2C(=C1)C3=NNC4=CC=CC(=C43)C2=O
Procedure, shortened: as §1

[9] = compound: C1CCN(C1)C(=O)NC2=CC=CC(=C2)NC3=NC=C(C(=N3)NCCC4=CN=CN4)Br
Procedure, shortened: as §1

[10] = compound: C1CN(CCC1(CC2=CC=C(C=C2)Cl)N)C3=NC=NC4=C3C=CN4
Procedure, shortened: as §1

Measured: log2 fold change

C6orf89 isoform 2 (UniProt Q6UWU4)
inactive: [1] -0.053 | [2] 0.072 | [3] 0 | [4] 0.044 | [5] 0.028 | [6] 0.056 | [7] -0.042 | [8] -0.032 | [9] -0.021 | [10] 0.006

C1D (UniProt Q13901)
inactive: [1] 0.022 | [2] -0.078 | [3] -0.01 | [4] -0.011 | [5] -0.246 | [6] 0.068 | [7] -0.071 | [8] -0.044 | [9] -0.019 | [10] -0.1

CAPN2 (UniProt P17655)
inactive: [1] 0.029 | [2] 0.025 | [3] 0.071 | [4] 0.023 | [5] 0.008 | [6] -0.012 | [7] 0.016 | [8] 0.015 | [9] -0.007 | [10] 0.04

CALB1 (UniProt P05937)
inactive: [1] -0.011 | [2] -0.001 | [3] 0.067 | [4] 0.032 | [5] -0.033 | [6] 0.055 | [7] -0.01 | [8] 0.027 | [9] 0.019 | [10] -0.026

C11orf24 (UniProt Q96F05)
inactive: [1] 0.302 | [2] -0.052 | [3] -0.062 | [4] 0.009 | [5] 0.115 | [6] 0.182 | [7] 0.04 | [8] 0.024

C20orf27 isoform 2 (UniProt Q9GZN8)
inactive: [1] -0.013 | [2] 0.12 | [3] -0.014 | [4] 0.016 | [5] 0.281 | [6] -0.021 | [7] 0.066 | [8] 0.015 | [9] 0.008 | [10] 0.016

CAMKK2 (UniProt Q96RR4)
inactive: [1] -0.091 | [2] -0.047 | [3] -0.026 | [4] -0.232 | [5] -0.059 | [6] -0.081 | [7] -0.122 | [8] -0.037 | [9] -0.19 | [10] 0.23

C1QBP (UniProt Q07021)
inactive: [1] -0.088 | [2] -0.044 | [3] 0.058 | [4] 0.044 | [5] 0.013 | [6] -0.003 | [7] -0.024 | [8] 0.028 | [9] 0.057 | [10] 0.02

C8orf88 (UniProt P0DMB2)
inactive: [1] -0.035 | [2] -0.171 | [3] -0.017 | [4] -0.067 | [5] 0.269 | [6] 0.06 | [7] 0.107 | [8] -0.287

CA1 (UniProt P00915)
inactive: [1] -0.025 | [2] 0.022 | [3] 0.03 | [4] 0.006 | [5] -0.079 | [6] 0.009 | [7] 0.064 | [8] 0.004 | [9] 0.018 | [10] 0.054

BZW1 isoform 3 (UniProt Q7L1Q6)
inactive: [1] 0.049 | [2] 0.176 | [3] -0.001 | [4] -0.088 | [5] 0.054 | [6] 0.019 | [7] 0.042 | [8] 0.039 | [9] -0.059 | [10] -0.101

CALU isoform 3 (UniProt O43852)
inactive: [1] 0.012 | [2] -0.018 | [3] 0.029 | [4] -0.017 | [5] -0.027 | [6] 0.034 | [7] -0.046 | [8] -0.027 | [9] 0.049 | [10] 0.048

C5orf51 (UniProt A6NDU8)
inactive: [1] -0.067 | [2] 0.092 | [3] 0.063 | [4] 0.046 | [5] 0.004 | [6] 0.036 | [7] -0.062 | [8] 0 | [9] -0.017 | [10] -0.037

CALU isoform 4 (UniProt O43852)
inactive: [1] 0.029 | [2] 0.015 | [3] 0.026 | [4] -0.043 | [5] -0.01 | [6] 0.048 | [7] -0.091 | [8] 0 | [9] 0.021 | [10] 0.032

CALR (UniProt P27797)
inactive: [1] -0.052 | [2] -0.031 | [3] 0.011 | [4] -0.016 | [5] -0.038 | [6] -0.021 | [7] -0.008 | [8] 0 | [9] 0.029 | [10] -0.015

CANT1 (UniProt Q8WVQ1)
inactive: [1] 0.01 | [2] 0.003 | [3] 0.031 | [4] 0.022 | [5] 0.017 | [6] 0.016 | [7] -0.025 | [8] 0.02 | [9] 0.004 | [10] 0.007

C2CD2L (UniProt O14523)
inactive: [1] -0.007 | [2] 0.012 | [3] 0.013 | [4] 0.011 | [5] 0.043 | [6] 0.045 | [7] -0.016 | [8] -0.081 | [9] 0.027 | [10] 0.042

CALCOCO2 isoform 4 (UniProt Q13137)
inactive: [1] -0.081 | [2] 0.018 | [3] -0.08 | [4] 0.059 | [5] 0.022 | [6] -0.043 | [7] -0.003 | [8] -0.057 | [9] -0.016 | [10] -0.052

Reprinted at random: 2 records from the list.
C1QBP (UniProt Q07021)
inactive: [1] -0.088 | [2] -0.044 | [3] 0.058 | [4] 0.044 | [5] 0.013 | [6] -0.003 | [7] -0.024 | [8] 0.028 | [9] 0.057 | [10] 0.02

C20orf27 isoform 2 (UniProt Q9GZN8)
inactive: [1] -0.013 | [2] 0.12 | [3] -0.014 | [4] 0.016 | [5] 0.281 | [6] -0.021 | [7] 0.066 | [8] 0.015 | [9] 0.008 | [10] 0.016

Carrying on.

BYSL (UniProt Q13895)
inactive: [1] -0.009 | [2] 0.014 | [3] -0.05 | [4] -0.006 | [5] -0.046 | [6] 0.027 | [7] -0.018 | [8] 0.075 | [9] -0.042 | [10] -0.289

C2orf49 (UniProt Q9BVC5)
inactive: [1] -0.032 | [2] 0.023 | [3] -0.291 | [4] -0.082 | [5] -0.081 | [6] 0.038 | [7] 0.07 | [8] 0.117 | [9] 0.042 | [10] -0.129

CAPNS1 (UniProt P04632)
inactive: [1] -0.027 | [2] 0.03 | [3] 0.016 | [4] 0.017 | [5] 0.022 | [6] 0.049 | [7] -0.072 | [8] -0.016 | [9] 0.036 | [10] 0.066

C22orf39 (UniProt Q6P5X5)
inactive: [1] -0.256 | [2] -0.02 | [3] -0.018 | [4] 0.02 | [5] -0.014 | [6] 0.051 | [7] -0.023 | [8] -0.004 | [9] 0.037 | [10] 0.02

C9orf64 (UniProt Q5T6V5)
inactive: [1] 0.046 | [2] 0.142 | [3] 0.009 | [4] 0.065 | [5] 0.117 | [6] 0.017 | [7] 0.054 | [8] -0.037 | [9] -0.001 | [10] -0.039

CAP1 (UniProt Q01518)
inactive: [1] -0.067 | [2] -0.001 | [3] 0.056 | [4] 0.016 | [5] 0.005 | [6] 0.001 | [7] 0.023 | [8] -0.005 | [9] 0.009 | [10] -0.006

C5orf22 (UniProt Q49AR2)
inactive: [1] 0.019 | [2] -0.031 | [3] 0.033 | [4] 0.047 | [5] 0.047 | [6] 0.017 | [7] 0.043 | [8] 0.05 | [9] -0.013 | [10] 0.005

CAPRIN1 (UniProt Q14444)
inactive: [1] -0.103 | [2] -0.121 | [3] -0.272 | [4] 0.034 | [5] -0.054 | [6] 0.004 | [7] -0.082 | [8] -0.077 | [9] 0.085 | [10] -0.103

CALM2 (UniProt P0DP24)
inactive: [1] -0.058 | [2] -0.018 | [3] 0.031 | [4] 0.001 | [5] -0.007 | [6] 0.026 | [7] 0.021 | [8] -0.031 | [9] -0.01 | [10] 0.033

C19orf53 (UniProt Q9UNZ5)
inactive: [1] -0.161 | [2] -0.216 | [3] -0.52 | [4] 0.079 | [5] -0.129 | [6] -0.011 | [7] -0.024 | [8] -0.028 | [9] 0.053 | [10] -0.176

BUB1B isoform 3 (UniProt O60566)
inactive: [1] 0.019 | [2] 0.054 | [3] -0.049 | [4] -0.031 | [5] 0.157 | [6] 0.052 | [7] 0.037 | [8] -0.038 | [9] -0.031 | [10] -0.095

BZW2 (UniProt Q9Y6E2)
inactive: [1] -0.018 | [2] 0.106 | [3] 0.054 | [4] -0.016 | [5] 0.033 | [6] 0.026 | [7] 0.022 | [8] 0.013 | [9] 0.037 | [10] -0.021
